{
  "source": "patent US6087336A",
  "about": "(Zeneca Limited, priority 1996, dated 2000)",
  "key": {"[1]": {"assay": "solid-phase peptide synthesis", "details": "for final HPLC purity: RP-HPLC (Vydac C18 218TP54), scale of the general procedure 0.25 mmoles"}, "[2]": {"assay": "general procedure: Fmoc solid-phase peptide synthesis; Fmoc Rink Amide MBHA resin; HBTU/HOBT/DIPEA; diisopropylcarbodiimide/HOBT on ACT 357", "details": "whole synthesis, scale 0.25 mmol"}, "[3]": {"assay": "general procedure: Fmoc solid-phase peptide synthesis; Hydroxymethyl polystyrene resin; HBTU/HOBT/DIPEA; diisopropylcarbodiimide/HOBT on ACT 357", "details": "whole synthesis, scale 1 mmol"}, "[4]": {"assay": "general procedure: Fmoc solid-phase peptide synthesis; Fmoc Rink Amide resin; HBTU/HOBT/DIPEA; diisopropylcarbodiimide/HOBT on ACT 357", "details": "whole synthesis, scale 0.25 mmole"}},
  "data": [
    {"substance": "Phv-Ala-Ala-Ala-Lys-Val-III-Ala-Pip-NH2", "values": [
      {"measurement": "final HPLC purity", "setting": "[1]; whole synthesis", "value": ">95", "unit": "% pure"}
    ]},
    {"substance": "Phv-Ala-Ala-Ala-Lys-Val-IIb-Ala-Pip-NH2", "values": [
      {"measurement": "final HPLC purity", "setting": "[1]; whole synthesis", "value": 100, "unit": "% purity"},
      {"measurement": "isolated mass", "setting": "[2]", "value": 84, "unit": "mg"},
      {"measurement": "isolated yield", "setting": "[2]", "value": 35, "unit": "% yield"}
    ]},
    {"substance": "Phv-Ala-Arg-Ala-Arg-Thr-IIb-Gly-NHEt", "values": [
      {"measurement": "isolated mass", "setting": "[1]; whole synthesis, scale 0.25 mmole", "value": 168, "unit": "mg"}
    ]},
    {"substance": "Phv-Arg-Ala-Ala-Ala-Thr-IIb-Ala-Papa-NHCH2 CH2 -Morpholine", "values": [
      {"measurement": "isolated mass", "setting": "[3]", "value": 40, "unit": "mg"}
    ]},
    {"substance": "Phv-Arg-Ala-Ala-Ala-Thr-IIb-Ala-Papa-OH", "values": [
      {"measurement": "isolated mass", "setting": "[3]", "value": 155, "unit": "mg"}
    ]},
    {"substance": "Phv-Arg-Ala-Ala-Ala-Thr-IIb-Ala-Papa-OMe", "values": [
      {"measurement": "isolated mass", "setting": "[3]", "value": 37, "unit": "mg"}
    ]},
    {"substance": "Phv-Dap-Ala-Ala-Ala-Thr-IIb-Ala-Papa-NH2", "values": [
      {"measurement": "isolated mass", "setting": "[4]", "value": 304, "unit": "mg"}
    ]},
    {"substance": "Phv-Gap-Ala-Ala-Ala-Thr-IIb-Ala-Papa-NH2", "values": [
      {"measurement": "difficulty met", "setting": "[1]; late stage modification step", "value": "only 40% conversion to the corresponding Gap peptide. Attempted preparative RP-HPLC failed to completely separate"}
    ]}
  ]
}
